Laboratory results published in article PMC6868891.
No constants are given. Whether binding was seen depends on the method and setting. In cells and extracts the contact can be indirect. Some entries that bind do so weakly or less than the wild type. Where a sequence is shown, tags or fusion partners need not be part of it. Values belong to the binder of their own block, whether it stands above or below them.

How the values were obtained:
[1] = target: T1, REC8-EGFP (UniProt O95072); assay: co-IP; HEK293 cells co-transfected with FLAG3-STAG3 (wild type or mutant) and REC8-EGFP or SMC1A-HA; nocodazole 0.2 ug/ml after 36 h for prometaphase arrest, RIPA lysis 12 h later; Dynabeads Protein G; blots with anti-FLAG, anti-GFP, anti-HA; the precipitating antibody is not stated
T1 sequence: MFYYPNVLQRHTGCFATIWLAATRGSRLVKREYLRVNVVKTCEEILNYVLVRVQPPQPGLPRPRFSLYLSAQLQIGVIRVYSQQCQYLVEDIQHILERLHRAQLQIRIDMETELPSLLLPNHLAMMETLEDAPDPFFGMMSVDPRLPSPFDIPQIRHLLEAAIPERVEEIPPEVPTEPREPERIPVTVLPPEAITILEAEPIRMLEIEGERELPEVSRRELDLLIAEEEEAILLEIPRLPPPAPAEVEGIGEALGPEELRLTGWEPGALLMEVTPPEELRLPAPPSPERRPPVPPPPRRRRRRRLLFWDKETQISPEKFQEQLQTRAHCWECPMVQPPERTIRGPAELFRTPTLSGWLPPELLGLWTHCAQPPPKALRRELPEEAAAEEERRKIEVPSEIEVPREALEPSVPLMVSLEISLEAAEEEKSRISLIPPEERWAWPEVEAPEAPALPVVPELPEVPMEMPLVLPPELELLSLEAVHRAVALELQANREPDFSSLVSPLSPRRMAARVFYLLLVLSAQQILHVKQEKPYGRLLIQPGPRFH

[2] = target: T2, SMC1A-HA (UniProt Q14683); assay: as above
T2 sequence: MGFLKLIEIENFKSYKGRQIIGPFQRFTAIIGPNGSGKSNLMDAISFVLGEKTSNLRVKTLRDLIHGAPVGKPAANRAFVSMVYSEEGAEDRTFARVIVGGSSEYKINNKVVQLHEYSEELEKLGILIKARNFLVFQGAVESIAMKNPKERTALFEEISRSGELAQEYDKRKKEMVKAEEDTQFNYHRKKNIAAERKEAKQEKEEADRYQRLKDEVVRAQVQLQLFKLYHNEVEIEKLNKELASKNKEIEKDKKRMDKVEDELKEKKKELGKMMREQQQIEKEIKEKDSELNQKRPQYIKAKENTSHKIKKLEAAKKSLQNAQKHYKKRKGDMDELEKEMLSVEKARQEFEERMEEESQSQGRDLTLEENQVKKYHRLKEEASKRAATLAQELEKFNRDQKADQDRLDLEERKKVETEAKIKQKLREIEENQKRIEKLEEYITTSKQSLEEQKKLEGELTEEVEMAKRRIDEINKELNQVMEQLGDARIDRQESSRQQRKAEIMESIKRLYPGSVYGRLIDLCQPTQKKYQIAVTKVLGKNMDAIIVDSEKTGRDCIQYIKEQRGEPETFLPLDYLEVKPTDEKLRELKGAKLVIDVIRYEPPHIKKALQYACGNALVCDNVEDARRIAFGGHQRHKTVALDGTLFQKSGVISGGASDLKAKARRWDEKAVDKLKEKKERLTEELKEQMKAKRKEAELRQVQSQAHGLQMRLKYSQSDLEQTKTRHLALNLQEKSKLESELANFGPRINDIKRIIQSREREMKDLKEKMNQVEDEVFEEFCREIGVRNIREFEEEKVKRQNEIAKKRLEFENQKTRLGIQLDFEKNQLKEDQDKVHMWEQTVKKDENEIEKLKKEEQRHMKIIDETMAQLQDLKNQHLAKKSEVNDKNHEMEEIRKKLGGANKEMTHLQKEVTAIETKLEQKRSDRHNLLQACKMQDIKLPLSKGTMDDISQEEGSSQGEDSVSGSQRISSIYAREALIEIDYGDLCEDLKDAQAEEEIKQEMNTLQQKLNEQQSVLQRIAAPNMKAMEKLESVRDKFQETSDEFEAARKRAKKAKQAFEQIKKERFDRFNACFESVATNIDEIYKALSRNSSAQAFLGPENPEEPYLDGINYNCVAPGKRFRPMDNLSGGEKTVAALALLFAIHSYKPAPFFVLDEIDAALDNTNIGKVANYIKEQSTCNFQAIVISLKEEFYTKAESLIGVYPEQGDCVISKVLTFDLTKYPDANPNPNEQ

binding [1]: no binding | binding [2]: no binding
B1: FLAG3-STAG3-p.293_295del (protein, UniProt Q9UJ98-1 1-1225)
chain: MSSPLQRAVGDTKRALSASSSSSASLPFDDRDSNHTSEGNGDSLLADEDTDFEDSLNRNVKKRAAKRPPKTTPVAKHPKKGSRVVHRHSRKQSEPPANDLFNAVKAAKSDMQSLVDEWLDSYKQDQDAGFLELVNFFIQSCGCKGIVTPEMFKKMSNSEIIQHLTEQFNEDSGDYPLIAPGPSWKKFQGSFCEFVRTLVCQCQYSLLYDGFPMDDLISLLTGLSDSQVRAFRHTSTLAAMKLMTSLVKVALQLSVHQDNNQRQYEAERNKGPGQRAPERLESLLEKRKELQEEIEGMMNALFRGVFVHRYRDVLPEIRAICIEEIGCWMQSYSTSFLTDSYLKYIGWTLHDKHREVRLKCVKALKGLYGNRDLTTRLELFTSRFKDRMVSMVMDREYDVAVEAVRLLILILKNMEGVLTDADCESVYPVVYASHRGLASAAGEFLYWKLFYPECEIRMMGGREQRQSPGAQRTFFQLLLSFFVESELHDHAAYLVDSLWDCAGARLKDWEGLTSLLLEKDQNLGDVQESTLIEILVSSARQASEGHPPVGRVTGRKGLTSKERKTQADDRVKLTEHLIPLLPQLLAKFSADAEKVTPLLQLLSCFDLHIYCTGRLEKHLELFLQQLQEVVVKHAEPAVLEAGAHALYLLCNPEFTFFSRADFARSQLVDLLTDRFQQELEELLQSSFLDEDEVYNLAATLKRLSAFYNTHDLTRWELYEPCCQLLQKAVDTGEVPHQVILPALTLVYFSILWTLTHISKSDASQKQLSSLRDRMVAFCELCQSCLSDVDTEIQEQAFVLLSDLLLIFSPQMIVGGRDFLRPLVFFPEATLQSELASFLMDHVFIQPGDLGSGDSQEDHLQIERLHQRRRLLAGFCKLLLYGVLEMDAASDVFKHYNKFYNDYGDIIKETLTRARQIDRSHCSRILLLSLKQLYTELLQEHGPQGLNELPAFIEMRDLARRFALSFGPQQLQNRDLVVMLHKEGIQFSLSELPPAGSSNQPPNLAFLELLSEFSPRLFHQDKQLLLSYLEKCLQHVSQAPGHPWGPVTTYCHSLSPVENTAETSPQVLPSSKRRRVEGPAKPNREDVSSSQEESLQLNSIPPTPTLTSTAVKSRQPLWGLKEMEEEDGSELDFAQGQPVAGTERSRFLGPQYFQTPHNPSGPGLGNQLMRLSLMEEDEEEELEIQDESNEERQDTDMQASSYSSTSERGLDLLDSTELDIEDF

binding [1]: binds | binding [2]: binds
B2: FLAG3-STAG3-WT (wild-type stromal antigen 3) (protein, UniProt Q9UJ98-1 1-1225)
chain: MSSPLQRAVGDTKRALSASSSSSASLPFDDRDSNHTSEGNGDSLLADEDTDFEDSLNRNVKKRAAKRPPKTTPVAKHPKKGSRVVHRHSRKQSEPPANDLFNAVKAAKSDMQSLVDEWLDSYKQDQDAGFLELVNFFIQSCGCKGIVTPEMFKKMSNSEIIQHLTEQFNEDSGDYPLIAPGPSWKKFQGSFCEFVRTLVCQCQYSLLYDGFPMDDLISLLTGLSDSQVRAFRHTSTLAAMKLMTSLVKVALQLSVHQDNNQRQYEAERNKGPGQRAPERLESLLEKRKELQEHQEEIEGMMNALFRGVFVHRYRDVLPEIRAICIEEIGCWMQSYSTSFLTDSYLKYIGWTLHDKHREVRLKCVKALKGLYGNRDLTTRLELFTSRFKDRMVSMVMDREYDVAVEAVRLLILILKNMEGVLTDADCESVYPVVYASHRGLASAAGEFLYWKLFYPECEIRMMGGREQRQSPGAQRTFFQLLLSFFVESELHDHAAYLVDSLWDCAGARLKDWEGLTSLLLEKDQNLGDVQESTLIEILVSSARQASEGHPPVGRVTGRKGLTSKERKTQADDRVKLTEHLIPLLPQLLAKFSADAEKVTPLLQLLSCFDLHIYCTGRLEKHLELFLQQLQEVVVKHAEPAVLEAGAHALYLLCNPEFTFFSRADFARSQLVDLLTDRFQQELEELLQSSFLDEDEVYNLAATLKRLSAFYNTHDLTRWELYEPCCQLLQKAVDTGEVPHQVILPALTLVYFSILWTLTHISKSDASQKQLSSLRDRMVAFCELCQSCLSDVDTEIQEQAFVLLSDLLLIFSPQMIVGGRDFLRPLVFFPEATLQSELASFLMDHVFIQPGDLGSGDSQEDHLQIERLHQRRRLLAGFCKLLLYGVLEMDAASDVFKHYNKFYNDYGDIIKETLTRARQIDRSHCSRILLLSLKQLYTELLQEHGPQGLNELPAFIEMRDLARRFALSFGPQQLQNRDLVVMLHKEGIQFSLSELPPAGSSNQPPNLAFLELLSEFSPRLFHQDKQLLLSYLEKCLQHVSQAPGHPWGPVTTYCHSLSPVENTAETSPQVLPSSKRRRVEGPAKPNREDVSSSQEESLQLNSIPPTPTLTSTAVKSRQPLWGLKEMEEEDGSELDFAQGQPVAGTERSRFLGPQYFQTPHNPSGPGLGNQLMRLSLMEEDEEEELEIQDESNEERQDTDMQASSYSSTSERGLDLLDSTELDIEDF
